HELM strings list residues between dots; [ac] is acetyl, [am] amide, other brackets name non-standard units.
Experiment: solid-phase peptide synthesis
Details: whole synthesis, scale 0.25 mmol

For “PEPTIDE1{[ac].[K(Pam)].A.K.F.E.V.N.N.P.Q.V.Q.R.Q.A.F.N.E.L.I.R.V.V.H.Q.L.L.P.E.S.S.L.R.K.R.K.R.S.R.[am]}$$$$V2.0”, the “final HPLC purity” value (RP-HPLC on C3 Zorbax, homogeneity confirmed in two different RP-HPLC systems) was “greater than 95%”, the isolated yield (cumulative) was 10% and the isolated mass was 140 mg.
